Measurements reported in PubChem BioAssay AID1259254 (NCATS, 2017)
Shown is a random part of about 59,000 deposited reagents. About 1,550 of them (2.6%) were called active. 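G2 share is only a proxy for re-replication; each gene was hit by three separate siRNAs, and active genes were retested.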 Entries without a mark were called inactive. Reagents against one gene are numbered here. Not all columns of the deposit are shown. Reagent sequences are not shown. Not stated in the record: the amount of reagent.

Test: 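Finding genes that stop cells copying their DNA twice in one cycle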 (primary screen)
Cell system: human HCT116 colorectal cancer cells
Knock-down reagent: single siRNA against human genes
Time to read-out: 3 days
Measured: 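Imaged Hoechst DNA stain sorts each cell into a cycle phase by DNA amount; per plate, G2 fraction set to 0% for non-targeting and 100% for GMNN siRNA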
Direction: G2 robust z-score: higher = more G2 cells, more excess DNA replication
Active means: 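Active siRNAs have a G2 robust z of 5 or more median absolute deviations over the median, which in these data means about 38% or higher of GMNN control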

Knock-down of MTF2 (metal response element binding transcription factor 2) #1 gave: G2 robust z-score -0.0786.
With knock-down of MTF2 (metal response element binding transcription factor 2) #2, the record shows G2 robust z-score -0.159.
Depletion of MTF2 (metal response element binding transcription factor 2) #3 resulted in: G2 robust z-score -0.634.
Silencing of CDK2AP1 (cyclin dependent kinase 2 associated protein 1) #1 came out at: G2 robust z-score 1.1.
CDK2AP1 (cyclin dependent kinase 2 associated protein 1) #2 showed G2 robust z-score -0.947.
Against CDK2AP1 (cyclin dependent kinase 2 associated protein 1) #3 the deposit lists G2 robust z-score -1.29.
Silencing of SEMA4A (semaphorin 4A) #1 gave: G2 robust z-score 1.78.
For SEMA4A (semaphorin 4A) #2, the entry reads G2 robust z-score 2.24.
For SEMA4A (semaphorin 4A) #3, the entry reads G2 robust z-score 0.0922.

A stretch taken from the entries so far, as a working copy:
MTF2 (metal response element binding transcription factor 2) #3 → G2 robust z-score = -0.634
CDK2AP1 (cyclin dependent kinase 2 associated protein 1) #1 → G2 robust z-score = 1.1
CDK2AP1 (cyclin dependent kinase 2 associated protein 1) #2 → G2 robust z-score = -0.947

The results go on:
Silencing of BEX1 (brain expressed X-linked 1) #1 gave: G2 robust z-score 0.38.
With knock-down of BEX1 (brain expressed X-linked 1) #2 the results were G2 robust z-score -0.432.
BEX1 (brain expressed X-linked 1) #3 showed G2 robust z-score -0.708.
After knock-down of LY96 (lymphocyte antigen 96) #1, the record shows G2 robust z-score 1.11.
LY96 (lymphocyte antigen 96) #2 gave G2 robust z-score -1.06.
With knock-down of LY96 (lymphocyte antigen 96) #3, the record shows G2 robust z-score 0.268.
LRRC34 (leucine rich repeat containing 34) #1 showed G2 robust z-score 1.23.
Knock-down of LRRC34 (leucine rich repeat containing 34) #2 gave: G2 robust z-score 0.563.
Silencing of LRRC34 (leucine rich repeat containing 34) #3 came out at: G2 robust z-score -0.33.
Knock-down of CDC42EP1 (CDC42 effector protein 1) #1 resulted in: G2 robust z-score 0.546.
Knock-down of CDC42EP1 (CDC42 effector protein 1) #2 resulted in: G2 robust z-score -1.01.
CDC42EP1 (CDC42 effector protein 1) #3 showed G2 robust z-score 0.619.
After knock-down of RPL17P39 (ribosomal protein L17 pseudogene 39) #1 the results were G2 robust z-score 3.54.
Depletion of RPL17P39 (ribosomal protein L17 pseudogene 39) #2 came out at: G2 robust z-score -0.0337.
With knock-down of RPL17P39 (ribosomal protein L17 pseudogene 39) #3, the record shows G2 robust z-score -0.255.
